In publication PMC13016607:
These are yes or no findings as the source states them, for the method shown. In cells and extracts the contact can be indirect. For part of these data: A result given as binding can be weak or reduced; the word gives no strength.

B1: Bendless (Ben), the Drosophila homolog of mammalian Ubc13 (enzyme, UniProt P35128 1-151)
chain: MSSLPRRIIKETQRLMQEPVPGINAIPDENNARYFHVIVTGPNDSPFEGGVFKLELFLPEDYPMSAPKVRFITKIYHPNIDRLGRICLDVLKDKWSPALQIRTILLSIQALLSAPNPDDPLANDVAELWKVNEAEAIRNAREWTQKYAVED

How the values were obtained:
Experiment in all cases: co-IP; tagged proteins co-expressed in Drosophila S2 cells (act-GAL4); NP-40 lysis buffer with protease inhibitors, 4°C; primary antibodies 3 hr, Protein G Sepharose 2 hr; five washes; western blotting
[1] = target: T1, Fzy (D. melanogaster) (UniProt Q24044)
T1 sequence: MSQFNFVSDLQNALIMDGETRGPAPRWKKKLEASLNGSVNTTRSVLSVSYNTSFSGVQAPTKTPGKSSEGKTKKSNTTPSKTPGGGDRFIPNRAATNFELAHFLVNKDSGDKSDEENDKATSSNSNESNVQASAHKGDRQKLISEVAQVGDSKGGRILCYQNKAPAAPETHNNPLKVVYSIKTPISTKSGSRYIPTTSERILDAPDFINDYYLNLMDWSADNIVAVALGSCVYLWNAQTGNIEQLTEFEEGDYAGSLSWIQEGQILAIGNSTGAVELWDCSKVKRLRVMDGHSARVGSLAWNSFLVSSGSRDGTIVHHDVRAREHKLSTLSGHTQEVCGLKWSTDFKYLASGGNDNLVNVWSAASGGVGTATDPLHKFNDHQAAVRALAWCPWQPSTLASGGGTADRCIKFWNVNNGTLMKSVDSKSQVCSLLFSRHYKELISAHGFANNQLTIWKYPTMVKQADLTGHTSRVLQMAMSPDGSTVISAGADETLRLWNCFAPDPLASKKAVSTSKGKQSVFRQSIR

[2] = target: T2, Bendless (Ben), the Drosophila homolog of mammalian Ubc13 (D. melanogaster) (UniProt P35128)
T2 sequence: B1 chain

[3] = target: Cell division cycle 27 (Cdc27, Drosophila APC3) (D. melanogaster)

Row | Molecule | binding [1] | binding [2] | binding [3]
1 | Uev1A (D. melanogaster) | no binding | binds | 
2 | B1 |  |  | no binding
